{"source": "ChEMBL document CHEMBL1121374", "about": "“Analgesic narcotic antagonists. 4. 7-Methyl-N-(cycloalkylmethyl)-3-hydroxymorphinan-6-ones and -isomorphinan-6-ones” (1980)", "tested_on": "Mus musculus", "test": "Compound was tested for analgesia in mouse writhing assay by subcutaneous administration", "assay_type": "functional", "settings": "sc"}
{"smiles": "CN1CC[C@]23c4c5ccc(O)c4O[C@H]2[C@@H](O)C=C[C@H]3[C@H]1C5", "note": "[MORPHINE]", "values": [{"measurement": "ED50", "value": 2.1, "unit": "µmol/kg"}]}
